Record: PubChem BioAssay AID1259254 (NCATS, 2017)
Here is an unselected part of about 59,000 reagents. About 1,550 of all reagents (2.6%) count as active. 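G2 share is only a proxy for re-replication; each gene was hit by three separate siRNAs, and active genes were retested.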 Unmarked entries are inactive. Further read-outs or replicates are left out here. Reagent sequences are not shown. The record does not give: the amount of reagent.

Screen: 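Genome-wide screen for genes that prevent DNA re-replication in cancer cells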 (primary screen)
System: human HCT116 colorectal cancer cells
Reagents: single siRNA against human genes
Time to read-out: 3 days
Measured: 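Nuclei stained with Hoechst and imaged; cell-cycle phase assigned by DNA content; G2 share scaled per plate, non-targeting siRNA 0%, GMNN siRNA 100%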
Reading the numbers: G2 robust z-score: higher = more G2 cells, more excess DNA replication
Active means: 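An siRNA counts as active if its G2 robust z-score lies at least 5 MADs above the screen median; here such calls match roughly 38% of GMNN control or more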

| Gene | PubChem SID | G2 robust z-score |
| --- | --- | --- |
| KANSL1L (GeneID 151050) | SID160759044 | -0.993 |
| KANSL1L (GeneID 151050) | SID160759046 | -1.12 |
| KANSL1L (GeneID 151050) | SID160759047 | -0.661 |
| MARCKS (GeneID 4082) | SID160776838 | -0.477 |
| MARCKS (GeneID 4082) | SID160776839 | -0.206 |
| MARCKS (GeneID 4082) | SID160776840 | 1.08 |
| PRDM6 (GeneID 93166) | SID160754448 | -0.654 |
| PRDM6 (GeneID 93166) | SID160754449 | -0.0682 |
| PRDM6 (GeneID 93166) | SID160754450 | 2.2 |
| TCP11L2 (GeneID 255394) | SID160762321 | 1.08 |
| TCP11L2 (GeneID 255394) | SID160762322 | -0.437 |
| TCP11L2 (GeneID 255394) | SID160762323 | -0.569 |

Continued (4 carried over from the part before).
| Gene | PubChem SID | G2 robust z-score |
| --- | --- | --- |
| PRDM6 (GeneID 93166) | SID160754450 | 2.2 |
| TCP11L2 (GeneID 255394) | SID160762321 | 1.08 |
| TCP11L2 (GeneID 255394) | SID160762322 | -0.437 |
| TCP11L2 (GeneID 255394) | SID160762323 | -0.569 |
| RNF146 (GeneID 81847) | SID160751013 | -0.251 |
| RNF146 (GeneID 81847) | SID160751014 | 1.45 |
| RNF146 (GeneID 81847) | SID160751015 | -0.321 |
| SANBR (GeneID 84542) | SID160752393 | 2.22 |
| SANBR (GeneID 84542) | SID160752394 | 0.0771 |
| SANBR (GeneID 84542) | SID160752395 | 0.0903 |
| SULT1A4 (GeneID 445329) | SID160768208 | 0.489 |
| SULT1A4 (GeneID 445329) | SID160768209 | -0.0996 |
| SULT1A4 (GeneID 445329) | SID160768210 | 1.11 |
| HTR3A (GeneID 3359) | SID160775461 | 0.017 |
| HTR3A (GeneID 3359) | SID160775462 | 0.00531 |
| HTR3A (GeneID 3359) | SID160775463 | -0.578 |
| DDRGK1 (GeneID 65992) | SID160748376 | -0.269 |
| DDRGK1 (GeneID 65992) | SID160748377 | -0.933 |
| DDRGK1 (GeneID 65992) | SID160748378 | -1.52 |
| GPR153 (GeneID 387509) | SID160725177 | -0.454 |
| GPR153 (GeneID 387509) | SID160765597 | -1.07 |
| GPR153 (GeneID 387509) | SID160765598 | -0.464 |
